Source: the supplement of paper PMC10849652
The list shows a part of the results.

By UniProt entry, the sequences of proteins in these tests, tags left out. Where a name states a change or a piece, a line headed by the entry shows the natural chain unless it says otherwise.
UniProt P50443: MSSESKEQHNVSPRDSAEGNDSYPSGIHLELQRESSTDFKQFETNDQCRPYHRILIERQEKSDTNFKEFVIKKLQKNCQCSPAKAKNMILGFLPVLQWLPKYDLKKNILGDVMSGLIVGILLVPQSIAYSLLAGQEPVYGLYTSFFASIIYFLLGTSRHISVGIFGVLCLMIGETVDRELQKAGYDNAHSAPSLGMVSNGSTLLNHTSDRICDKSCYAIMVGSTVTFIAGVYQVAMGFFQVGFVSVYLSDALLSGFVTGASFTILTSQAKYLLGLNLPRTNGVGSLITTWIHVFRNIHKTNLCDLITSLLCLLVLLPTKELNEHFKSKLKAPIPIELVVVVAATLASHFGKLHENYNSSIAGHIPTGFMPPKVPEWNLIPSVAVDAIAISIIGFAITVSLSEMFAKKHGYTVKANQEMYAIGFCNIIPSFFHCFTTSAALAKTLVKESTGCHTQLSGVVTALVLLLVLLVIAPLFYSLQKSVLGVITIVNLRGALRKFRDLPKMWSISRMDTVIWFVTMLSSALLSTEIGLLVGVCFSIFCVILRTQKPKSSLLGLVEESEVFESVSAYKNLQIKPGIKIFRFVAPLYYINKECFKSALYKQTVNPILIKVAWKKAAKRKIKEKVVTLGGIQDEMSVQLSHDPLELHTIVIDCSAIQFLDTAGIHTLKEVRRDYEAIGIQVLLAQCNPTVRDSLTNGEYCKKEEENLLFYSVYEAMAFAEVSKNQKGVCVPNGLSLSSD
UniProt P09131: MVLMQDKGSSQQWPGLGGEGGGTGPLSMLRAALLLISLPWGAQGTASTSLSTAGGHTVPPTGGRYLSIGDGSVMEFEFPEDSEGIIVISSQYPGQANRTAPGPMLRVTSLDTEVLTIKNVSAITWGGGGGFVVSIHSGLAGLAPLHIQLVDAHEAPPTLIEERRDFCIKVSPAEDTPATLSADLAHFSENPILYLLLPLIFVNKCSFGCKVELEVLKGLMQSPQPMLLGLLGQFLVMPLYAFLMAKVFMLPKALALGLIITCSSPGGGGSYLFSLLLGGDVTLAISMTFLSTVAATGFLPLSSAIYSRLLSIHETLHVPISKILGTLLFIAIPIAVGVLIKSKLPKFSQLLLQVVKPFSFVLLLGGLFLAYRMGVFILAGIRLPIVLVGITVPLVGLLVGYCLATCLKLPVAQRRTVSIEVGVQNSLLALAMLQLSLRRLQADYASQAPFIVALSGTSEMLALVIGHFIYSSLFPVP
UniProt Q969S0: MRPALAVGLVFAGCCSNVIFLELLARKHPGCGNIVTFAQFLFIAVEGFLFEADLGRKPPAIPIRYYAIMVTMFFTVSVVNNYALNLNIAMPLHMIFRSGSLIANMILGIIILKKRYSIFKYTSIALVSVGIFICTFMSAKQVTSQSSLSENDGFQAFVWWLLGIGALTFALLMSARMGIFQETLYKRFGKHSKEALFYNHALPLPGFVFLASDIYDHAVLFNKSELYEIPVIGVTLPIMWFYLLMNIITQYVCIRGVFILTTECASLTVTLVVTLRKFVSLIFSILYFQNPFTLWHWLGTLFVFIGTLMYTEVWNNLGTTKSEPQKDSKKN
UniProt Q9NUM3: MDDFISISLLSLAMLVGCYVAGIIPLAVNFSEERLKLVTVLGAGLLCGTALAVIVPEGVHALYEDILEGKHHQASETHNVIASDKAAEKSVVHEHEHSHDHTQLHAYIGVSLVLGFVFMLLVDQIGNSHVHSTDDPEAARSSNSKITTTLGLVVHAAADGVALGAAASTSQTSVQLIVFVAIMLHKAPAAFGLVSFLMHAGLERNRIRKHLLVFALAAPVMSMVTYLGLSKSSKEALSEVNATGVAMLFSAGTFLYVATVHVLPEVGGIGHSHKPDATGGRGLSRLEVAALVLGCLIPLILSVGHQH
UniProt Q0GE19: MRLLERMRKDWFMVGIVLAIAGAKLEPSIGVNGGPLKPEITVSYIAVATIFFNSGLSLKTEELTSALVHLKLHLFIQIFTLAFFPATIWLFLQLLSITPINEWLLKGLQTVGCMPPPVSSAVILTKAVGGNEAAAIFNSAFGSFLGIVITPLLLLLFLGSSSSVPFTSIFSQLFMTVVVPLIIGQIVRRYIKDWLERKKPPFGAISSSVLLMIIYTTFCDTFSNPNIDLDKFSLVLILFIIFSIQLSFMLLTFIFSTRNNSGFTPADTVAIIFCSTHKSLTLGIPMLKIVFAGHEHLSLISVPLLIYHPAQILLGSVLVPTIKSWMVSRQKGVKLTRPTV
UniProt Q9UGH3: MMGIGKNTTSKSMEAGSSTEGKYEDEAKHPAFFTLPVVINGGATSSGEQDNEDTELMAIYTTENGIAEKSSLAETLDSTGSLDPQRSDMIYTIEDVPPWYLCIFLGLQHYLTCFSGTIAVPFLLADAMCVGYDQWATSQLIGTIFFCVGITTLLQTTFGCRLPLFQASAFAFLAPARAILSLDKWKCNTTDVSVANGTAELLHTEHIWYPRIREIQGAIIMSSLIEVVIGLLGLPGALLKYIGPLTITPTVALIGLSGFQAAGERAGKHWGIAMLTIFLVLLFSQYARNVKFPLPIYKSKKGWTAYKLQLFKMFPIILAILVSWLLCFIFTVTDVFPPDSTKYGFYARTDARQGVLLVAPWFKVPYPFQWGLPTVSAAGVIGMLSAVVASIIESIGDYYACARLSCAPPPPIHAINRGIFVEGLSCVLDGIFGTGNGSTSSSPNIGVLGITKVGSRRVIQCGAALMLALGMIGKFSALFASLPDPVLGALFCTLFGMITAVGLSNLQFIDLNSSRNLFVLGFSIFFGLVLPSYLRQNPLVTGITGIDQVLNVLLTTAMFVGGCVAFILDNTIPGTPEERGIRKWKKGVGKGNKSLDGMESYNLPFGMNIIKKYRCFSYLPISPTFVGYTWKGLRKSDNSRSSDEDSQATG
UniProt Q9BS91: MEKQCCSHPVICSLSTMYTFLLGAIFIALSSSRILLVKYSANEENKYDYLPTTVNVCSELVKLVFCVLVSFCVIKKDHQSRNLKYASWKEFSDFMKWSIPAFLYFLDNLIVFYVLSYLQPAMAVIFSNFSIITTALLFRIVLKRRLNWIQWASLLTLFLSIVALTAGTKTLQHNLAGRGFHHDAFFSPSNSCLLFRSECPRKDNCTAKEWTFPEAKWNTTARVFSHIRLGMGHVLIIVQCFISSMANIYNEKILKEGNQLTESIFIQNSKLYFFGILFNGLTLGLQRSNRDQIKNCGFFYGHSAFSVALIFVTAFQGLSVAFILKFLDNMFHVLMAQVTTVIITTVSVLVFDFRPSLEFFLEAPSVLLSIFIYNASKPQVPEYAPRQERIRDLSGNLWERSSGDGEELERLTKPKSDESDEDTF
UniProt Q9NP59: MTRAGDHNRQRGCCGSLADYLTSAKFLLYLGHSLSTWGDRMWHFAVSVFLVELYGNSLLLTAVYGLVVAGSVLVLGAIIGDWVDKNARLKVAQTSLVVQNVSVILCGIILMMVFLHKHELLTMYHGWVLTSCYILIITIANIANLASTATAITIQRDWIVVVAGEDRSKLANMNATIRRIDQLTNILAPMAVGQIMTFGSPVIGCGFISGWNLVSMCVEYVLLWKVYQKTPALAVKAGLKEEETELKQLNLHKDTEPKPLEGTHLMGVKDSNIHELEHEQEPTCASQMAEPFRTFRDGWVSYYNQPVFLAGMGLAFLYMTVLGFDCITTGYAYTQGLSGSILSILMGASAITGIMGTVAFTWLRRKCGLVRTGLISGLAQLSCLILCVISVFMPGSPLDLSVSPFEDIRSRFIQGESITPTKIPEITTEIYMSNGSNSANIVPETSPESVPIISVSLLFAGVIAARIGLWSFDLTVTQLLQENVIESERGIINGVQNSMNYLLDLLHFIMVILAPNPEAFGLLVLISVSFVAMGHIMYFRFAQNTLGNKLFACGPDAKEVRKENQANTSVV
UniProt Q96CQ1: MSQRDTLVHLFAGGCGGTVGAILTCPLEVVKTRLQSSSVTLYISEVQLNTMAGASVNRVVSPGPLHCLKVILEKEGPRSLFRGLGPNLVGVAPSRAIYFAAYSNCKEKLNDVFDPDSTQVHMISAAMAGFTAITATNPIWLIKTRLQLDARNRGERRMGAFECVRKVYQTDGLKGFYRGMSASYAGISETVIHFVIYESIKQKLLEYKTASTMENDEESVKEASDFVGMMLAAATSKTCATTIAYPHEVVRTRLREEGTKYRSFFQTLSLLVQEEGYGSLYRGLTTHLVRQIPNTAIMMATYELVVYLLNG
UniProt O60779: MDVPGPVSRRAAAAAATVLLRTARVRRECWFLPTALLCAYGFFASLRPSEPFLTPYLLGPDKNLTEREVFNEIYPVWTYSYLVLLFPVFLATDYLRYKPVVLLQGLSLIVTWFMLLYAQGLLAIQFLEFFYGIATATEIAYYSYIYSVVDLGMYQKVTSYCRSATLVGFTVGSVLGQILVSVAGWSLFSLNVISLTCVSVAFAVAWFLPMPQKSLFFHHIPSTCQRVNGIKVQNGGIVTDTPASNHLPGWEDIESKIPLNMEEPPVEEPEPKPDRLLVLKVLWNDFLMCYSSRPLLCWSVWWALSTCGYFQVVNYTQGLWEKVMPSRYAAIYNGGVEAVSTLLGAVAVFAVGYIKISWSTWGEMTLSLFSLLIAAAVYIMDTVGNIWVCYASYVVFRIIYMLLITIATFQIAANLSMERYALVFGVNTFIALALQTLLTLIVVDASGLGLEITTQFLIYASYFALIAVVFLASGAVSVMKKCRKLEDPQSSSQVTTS
UniProt Q9HBR0: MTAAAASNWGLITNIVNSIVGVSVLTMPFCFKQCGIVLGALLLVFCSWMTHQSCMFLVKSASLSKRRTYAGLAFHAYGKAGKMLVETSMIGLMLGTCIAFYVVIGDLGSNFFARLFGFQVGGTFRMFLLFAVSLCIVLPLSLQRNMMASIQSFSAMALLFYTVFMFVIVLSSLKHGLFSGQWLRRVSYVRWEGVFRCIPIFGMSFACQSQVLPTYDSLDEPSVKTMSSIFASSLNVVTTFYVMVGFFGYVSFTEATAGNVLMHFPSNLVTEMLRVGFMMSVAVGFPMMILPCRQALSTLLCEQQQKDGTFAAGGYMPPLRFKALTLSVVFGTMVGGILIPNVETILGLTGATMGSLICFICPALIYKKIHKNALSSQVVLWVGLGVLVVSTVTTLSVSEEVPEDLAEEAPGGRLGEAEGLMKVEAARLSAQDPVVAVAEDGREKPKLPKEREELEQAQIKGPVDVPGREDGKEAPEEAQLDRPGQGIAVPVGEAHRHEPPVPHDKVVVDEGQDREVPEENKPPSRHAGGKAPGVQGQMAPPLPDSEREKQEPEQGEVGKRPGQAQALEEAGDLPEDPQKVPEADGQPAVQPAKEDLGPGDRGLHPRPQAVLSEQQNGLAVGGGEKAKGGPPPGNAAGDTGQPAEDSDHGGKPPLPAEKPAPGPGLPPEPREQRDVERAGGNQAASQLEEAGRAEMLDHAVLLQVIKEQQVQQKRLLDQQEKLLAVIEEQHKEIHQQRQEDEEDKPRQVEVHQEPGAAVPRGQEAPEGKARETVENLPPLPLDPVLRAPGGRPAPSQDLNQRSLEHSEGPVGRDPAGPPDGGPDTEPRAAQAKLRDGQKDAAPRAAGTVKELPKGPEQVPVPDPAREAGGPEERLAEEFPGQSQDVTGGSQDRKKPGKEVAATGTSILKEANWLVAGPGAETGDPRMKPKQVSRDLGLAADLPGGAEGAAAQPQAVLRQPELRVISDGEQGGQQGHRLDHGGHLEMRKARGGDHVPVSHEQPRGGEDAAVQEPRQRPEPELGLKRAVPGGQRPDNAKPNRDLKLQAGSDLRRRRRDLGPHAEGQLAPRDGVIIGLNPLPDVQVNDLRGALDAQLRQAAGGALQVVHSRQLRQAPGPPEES
UniProt Q5SVS4: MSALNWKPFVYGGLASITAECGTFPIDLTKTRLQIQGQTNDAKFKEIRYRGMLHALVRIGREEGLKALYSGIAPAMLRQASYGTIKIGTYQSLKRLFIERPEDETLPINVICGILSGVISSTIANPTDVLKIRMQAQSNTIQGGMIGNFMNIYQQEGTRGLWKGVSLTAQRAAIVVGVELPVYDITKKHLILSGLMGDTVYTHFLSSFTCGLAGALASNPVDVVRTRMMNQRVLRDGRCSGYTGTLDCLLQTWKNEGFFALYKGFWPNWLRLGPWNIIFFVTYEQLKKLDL
UniProt Q3KQZ1: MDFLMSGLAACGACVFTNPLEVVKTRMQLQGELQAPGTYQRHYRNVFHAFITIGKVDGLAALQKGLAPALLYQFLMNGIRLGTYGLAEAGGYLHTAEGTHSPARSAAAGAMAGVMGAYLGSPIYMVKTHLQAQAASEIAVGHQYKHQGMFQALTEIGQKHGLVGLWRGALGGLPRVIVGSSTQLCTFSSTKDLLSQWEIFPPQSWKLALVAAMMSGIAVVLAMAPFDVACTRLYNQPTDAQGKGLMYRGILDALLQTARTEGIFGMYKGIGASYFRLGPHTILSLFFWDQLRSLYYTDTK

Experiments:
Assay in all cases: log2 fold change, soluble protein after heating vs DMSO (PISA); higher = thermal stabilisation; K562 cells, 10 uM, 30 min; active = over 0.2 and 3.5 SD of the protein, either way, in both replicates (recomputed)
[1] = compound: CC1=C2C(=CC=C1)N=C(N(C2=O)C3=CC=CC=C3C)CN4C=NC5=C(N=CN=C54)N
In short: (§1)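 K562 cells at 2×10^6 cells/mL were treated for 30 min with 10 μM compound, and aliquots were heated for 3 min over 48°C-58°C before pooling. Extraction used PBS with 0.5% NP-40 at 4°C, and soluble protein was the supernatant after 21,000xg for 90 min, measured by TMTpro 16plex LC-MS/MS with channel sums equalised. Thermal stability values, relative to control samples and from duplicates, are log2 fold changes.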

[2] = compound: Cc1sc2c(c1C)C(c1ccc(Cl)cc1)=N[C@@H](CC(=O)OC(C)(C)C)c1nnc(C)n1-2
In short: as §1

[3] = compound: CC1=C(SC2=C1C(=N[C@H](C3=NN=C(N32)C)CC(=O)N)C4=CC=C(C=C4)Cl)C
In short: as §1

[4] = compound: c1ccc([C@@H]2C[C@H]2NC2CCNCC2)cc1
In short: as §1

[5] = compound: C1=CC=C(C=C1)[C@H](COC2=CC3=C(C=C2)NC(=O)N3)NC(=O)C4=CC=CN(C4=O)CC5=CC(=C(C=C5)F)F
In short: as §1

Measured: log2 fold change

SLC26A2 (UniProt P50443)
inactive: [1] -0.023

SLC35G1 (UniProt Q2M3R5)
inactive: [2] -0.163

SLC22A4 (UniProt Q9H015)
inactive: [3] 0.04 | [1] 0.052 | [2] -0.006 | [4] -0.057

SLC10A3 (UniProt P09131)
inactive: [5] -0.013 | [2] -0.146

SLC35B4 (UniProt Q969S0)
inactive: [5] 0.061 | [1] -0.069 | [2] -0.137

SLC38A7 (UniProt Q9NVC3)
inactive: [5] 0.021 | [3] -0.031 | [1] -0.004 | [2] -0.035 | [4] 0.117

SLC35E2B (UniProt P0CK96)
inactive: [5] -0.069 | [3] -0.162 | [1] -0.016 | [4] 0.183

SLC3A2 (UniProt F5GZS6)
inactive: [5] 0 | [1] -0.122 | [2] 0.011

SLC39A9 (UniProt Q9NUM3)
inactive: [3] 0.323 | [1] 0.322 | [2] -0.121 | [4] -0.093

SLC12A2 (UniProt P55011)
inactive: [5] 0.004 | [3] 0.038 | [1] 0.034 | [2] -0.003 | [4] -0.022

SLC3A2 (UniProt F5H867)
inactive: [5] -0.097 | [2] 0.067

SLC10A7 isoform 1 (UniProt Q0GE19)
inactive: [5] -0.187 | [2] 0.058

SLC35C2 isoform 3 (UniProt Q9NQQ7)
inactive: [5] -0.049 | [3] -0.055 | [4] -0.174

SLC46A1 (UniProt Q96NT5)
inactive: [3] -0.09 | [1] 0.075 | [2] 0.024 | [4] 0.256

SLC44A2 isoform 2 (UniProt Q8IWA5)
inactive: [5] 0.002 | [3] 0.077 | [1] -0.022 | [2] -0.045 | [4] 0.065

SLC35D1 (UniProt Q9NTN3)
inactive: [3] 0.092 | [1] 0.011 | [2] -0.096 | [4] 0.06

SLC22A23 (UniProt A1A5C7)
inactive: [3] 0.144 | [4] -0.139

SLC41A3 isoform 9 (UniProt Q96GZ6)
inactive: [5] -0.115 | [2] -0.052

SLC23A2 (UniProt Q9UGH3)
inactive: [5] 0.324 | [2] -0.126

SLC35A5 (UniProt Q9BS91)
inactive: [3] 0.082 | [2] -0.013 | [4] 0.01

SLC2A4 (UniProt P14672)
inactive: [5] 0.218 | [3] 0 | [2] -0.079 | [4] 0.136

SLC25A1 (UniProt P53007)
inactive: [5] 0.031 | [3] -0.006 | [1] -0.037 | [2] 0.007 | [4] 0.025

SLC40A1 (UniProt Q9NP59)
inactive: [5] -0.11 | [3] 0.109 | [1] -0.049 | [2] 0.018 | [4] 0.02

SLC25A36 (UniProt Q96CQ1)
inactive: [5] 0.027 | [3] -0.041 | [1] -0.066 | [2] 0.051 | [4] -0.008

SLC19A2 (UniProt O60779)
inactive: [3] 0.057 | [1] 0.134 | [2] -0.093 | [4] 0.042

Fetched one by one from above, two records:
SLC40A1 (UniProt Q9NP59)
inactive: [5] -0.11 | [3] 0.109 | [1] -0.049 | [2] 0.018 | [4] 0.02

SLC25A36 (UniProt Q96CQ1)
inactive: [5] 0.027 | [3] -0.041 | [1] -0.066 | [2] 0.051 | [4] -0.008

Next results follow:

SLC25A29 (UniProt Q8N8R3)
inactive: [2] 0.038

SLC39A1 (UniProt Q9NY26)
inactive: [3] -0.156 | [4] 0.053

SLC38A10 (UniProt Q9HBR0)
inactive: [5] 0.09 | [3] 0.039 | [1] 0.033 | [2] -0.021 | [4] 0.02

SLC25A30 (UniProt Q5SVS4)
inactive: [3] 0.076 | [1] 0.056 | [4] -0.021

SLC25A35 (UniProt Q3KQZ1)
inactive: [3] -0.029 | [1] 0.048 | [2] 0.022 | [4] 0.028

SLC35E3 (UniProt Q7Z769)
inactive: [2] -0.043
